Reference: patent US20240376166A1
These are yes or no findings as the source states them, for the method shown. In cells and extracts the contact can be indirect. Some binding calls cover weakened binding; strength is not graded here.

Chains of the proteins cited; added tags and fusions are not shown. Lines headed by an entry give the natural chain unless they say otherwise; changes in a name come on top.
UniProt Q07813: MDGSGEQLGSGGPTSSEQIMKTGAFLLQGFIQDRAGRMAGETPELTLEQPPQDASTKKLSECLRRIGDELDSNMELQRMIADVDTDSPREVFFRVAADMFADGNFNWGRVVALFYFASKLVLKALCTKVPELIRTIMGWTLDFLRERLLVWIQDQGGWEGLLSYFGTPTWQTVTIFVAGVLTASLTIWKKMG
UniProt P06748: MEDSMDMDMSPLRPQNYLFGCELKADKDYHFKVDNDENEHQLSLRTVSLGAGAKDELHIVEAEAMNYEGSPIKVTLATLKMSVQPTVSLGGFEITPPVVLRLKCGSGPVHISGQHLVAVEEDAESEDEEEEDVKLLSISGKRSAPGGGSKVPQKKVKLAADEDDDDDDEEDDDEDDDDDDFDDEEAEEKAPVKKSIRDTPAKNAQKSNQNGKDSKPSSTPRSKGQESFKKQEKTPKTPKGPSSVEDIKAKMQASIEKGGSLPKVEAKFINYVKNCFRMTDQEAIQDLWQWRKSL

Legend:
[1] = target: endogenous murine Bax, conformationally active (6A7 epitope exposed) (mouse) (UniProt Q07813); test: co-IP: flag IP of NPM, immunoblot for active Bax (6A7), after ischemic stress; wild-type is the reference lane; FIG. 5C
[2] = target: endogenous murine Bax, conformationally active (6A7 epitope exposed) (mouse) (UniProt Q07813); test: refers back to the co-IP result
[3] = target: endogenous murine Bax, conformationally active (6A7 epitope exposed) (mouse) (UniProt Q07813); test: co-IP in primary murine PTEC during ATP depletion; FIG. 5C
[4] = target: endogenous murine Bax, conformationally active (6A7 epitope exposed) (mouse) (UniProt Q07813); test: co-IP: flag IP of NPM, immunoblot for active Bax (6A7); FIG. 5C
[5] = target: endogenous murine Bax, conformationally active (6A7 epitope exposed) (mouse) (UniProt Q07813); test: co-IP: flag IP of NPM, immunoblot for active Bax (6A7), after ATP depletion; FIG. 5C

Row | binding [1] | binding [2] | binding [3] | binding [4] | binding [5] | Substance
1 | binds | – | – | – | – | flag-tagged wild-type human nucleophosmin (NPM) (from UniProt P06748 1-294)
2 | – | binds | binds | binds | binds | flag-tagged NPM stress mimic (T86E-S88E-T95E-T234A-S242A) (from UniProt P06748 1-294)
